According to PMC12040169 (PLOS Biology, 2025):
The list shows a part of the results.

What follows are molecules tested on T1, CTL2-GFP (C. trachomatis L2/434/Bu, GFP-expressing). Conditions: bulk GFP, single well; 28.5 h, 10 µM; inhibitor.
T1 construct: L2/434/Bu, GFP-expressing
Set-up: species or system HeLa; Intracellular C. trachomatis growth in HeLa cells, bulk GFP fluorescence relative to DMSO
`CC(=O)Nc1cccc(-c2cc(N3CCN(C(=O)c4ccco4)CC3)ncn2)c1` [CBK036959] was tested, and the “% of control remaining” value was 118.619%. For `O=C1c2ccccc2C(=O)c2c1cccc2S(=O)(=O)N1CCN(C(=O)C2CCCO2)CC1` (centres unmarked) [CBK200038], the “% of control remaining” value was 21.5422%. `CCOC(=O)c1ccc2ncc3c(=O)nc(N)sc3c2c1` [CBK291218] was tested, and the “% of control remaining” value was 122.282%. In the case of `OCC[C@H]1CN2CCCC2CN1Cc1cccc(Cl)c1Cl` (some centres unmarked) [CBK285429], the “% of control remaining” value is reported as 129.223%. In the case of `CC(Sc1nc2ccccc2c(=O)n1C1CC1)C(=O)N1CCOCC1` (centres unmarked) [CBK306045], the “% of control remaining” value is reported as 97.3388%. `C(=N\Nc1nnnn1-c1ccccc1)/c1ccco1` [CBK007334] was tested, and the “% of control remaining” value was 120.339%. `COc1ccc(-n2nnnc2SCC(=O)c2ccc(O)c(O)c2)cc1` [CBK293969] was tested, and the “% of control remaining” value was 159.904%. In the case of `O=C(CNC(=O)c1ccc2c(c1)OCCO2)N/N=C/c1cccs1` [CBK261987], the “% of control remaining” value is reported as 106.427%. In the case of `C[C@H]1CN2CCCC2CN1Cc1ccc2c(c1)CCO2` (some centres unmarked) [CBK285443], the “% of control remaining” value is reported as 107.248%. In the case of `CCC(c1ccc(F)cc1)N(C)C(=O)Cn1cc(C(=O)NC2CCCCC2)ccc1=O` (centres unmarked) [CBK286106], the “% of control remaining” value is reported as 16.8484%. `CCOC(=O)C1=C(Nc2ccc(O)cc2)C(=O)N(C(C)(C)C)C1` [CBK005677] was tested, and the “% of control remaining” value was 118.572%. In the case of `CC(=O)Nc1ccc(-c2csc(NC(=O)NS(=O)(=O)c3ccc(C)cc3)n2)cc1` [CBK297084], the “% of control remaining” value is reported as 112.078%. For `COc1ccc(/C=C/C(=O)C2CC2)c(C(=O)O)c1OC` [CBK286639], the “% of control remaining” value was 100.147%. With `CCN1CCCC1CNC(=O)C(=O)Nc1ccccc1OC` (centres unmarked) [CBK266865] the “% of control remaining” value was 87.5812%. `CCOc1cc(/C=C2\SC(=S)N(Cc3ccccc3)C2=O)cc(Cl)c1OC(=O)c1ccco1` [CBK265509] was tested, and the “% of control remaining” value was 100%. In the case of `CC(C)(C)c1ccc(-n2cc(-c3ccc(F)cc3)nn2)cc1` [CBK113112], the “% of control remaining” value is reported as 107.194%. `CS(=O)(=O)N(CC(=O)Nc1ccc(S(N)(=O)=O)cc1)Cc1ccc(Cl)cc1` [CBK267512] was tested, and the “% of control remaining” value was 110.378%. In the case of `CCN(C(=O)Nc1ccc(-c2ccco2)cc1)C1CCOCC1` [CBK306916], the “% of control remaining” value is reported as 115.885%. For `Cc1nc(O)cc(CCn2cc(-c3cncnc3)nn2)n1` [CBK306712], the “% of control remaining” value was 103.483%. For `OC1CCN(c2nccc(C(F)(F)F)n2)CC1` [CBK038372], the “% of control remaining” value was 111.757%. For `O=S(=O)(Nc1ccc(C(O)(C(F)(F)F)C(F)(F)F)cc1)c1ccc(-c2ccon2)s1` [CBK062105], the “% of control remaining” value was 124.327%. In the case of `O=C(O)c1cc(-c2ccccc2)nc(Nc2nc3ccccc3s2)n1` [CBK264665], the “% of control remaining” value is reported as 115.646%. `COc1cccc(-c2nn(CCC#N)cc2C(N)=O)c1` [CBK305835] was tested, and the “% of control remaining” value was 97.4741%. `COc1cccc(-c2nnn(CC(=O)O)n2)c1` [CBK068202] was tested, and the “% of control remaining” value was 121.704%. `O=[N+]([O-])c1ccc(COc2cccc(/C=N/Nc3nc4ccccc4s3)c2)cc1` [CBK262160] was tested, and the “% of control remaining” value was 110.275%. `COc1cc(NC(=O)c2cnc(-c3ccc(Cl)cc3)c(-c3ccco3)c2)cc(C(F)(F)F)c1` [CBK037570] was tested, and the “% of control remaining” value was 113.96%. With `CC[C@H]1CN(C(=O)c2cccnc2)CC[C@H]1CC(=O)N1CCC(C(N)=O)CC1` [CBK288772] the “% of control remaining” value was 122.322%. `Cc1ccnc2nc(C(=O)OC(C)C(=O)N3CCCCCC3)nn12` (centres unmarked) [CBK306155] was tested, and the “% of control remaining” value was 122.465%. `O=c1oc2ccccc2c2c1nnn2CCCN1CCOCC1` [CBK261470C] was tested, and the “% of control remaining” value was 117.792%. For `Cc1cc(C)c2nc(NC(=O)c3ccccc3)sc2c1` [CBK287308], the “% of control remaining” value was 128.894%. With `COc1c(Cl)cc(Cl)cc1CNC1CCCc2c1cnn2C` (centres unmarked) [CBK304305C] the “% of control remaining” value was 100.869%. With `CC(=O)COc1cc(OCC(C)=O)c2c3c(c(=O)oc2c1)CCC3` [CBK307219] the “% of control remaining” value was 134.554%. For `COc1ccc(CN2CCOCC2CC(=O)O)cc1Cn1cncn1` (centres unmarked) [CBK307220], the “% of control remaining” value was 128.759%. For `Cc1ccn(CCC(=O)N2CCCC(c3cc4cccnc4[nH]3)C2)n1` (centres unmarked) [CBK284927], the “% of control remaining” value was 122.675%. For `Cc1nn(-c2ccccc2)c2c1C(c1cnn(C)c1)SCC(=O)N2` (centres unmarked) [CBK287896], the “% of control remaining” value was 74.4172%. In the case of `CS(=O)(=O)c1ccc(-c2ccc3c(c2)COC(C2CCN(C(=O)c4ccccc4O)CC2)O3)cc1` (centres unmarked) [CBK158682], the “% of control remaining” value is reported as 107.481%. `COc1ccc(CCNc2nc(-c3ccccn3)cs2)cc1OC` [CBK267260] was tested, and the “% of control remaining” value was 155.043%. In the case of `N#Cc1c(NC(=O)CSc2nnc(N)s2)sc2c1CCCC2` [CBK266649], the “% of control remaining” value is reported as 106.624%. In the case of `c1ccc(CCNc2nc(-c3cccs3)cn3ccnc23)nc1` [CBK066633], the “% of control remaining” value is reported as 110.149%. With `CCCC(=O)N1CCCCC1c1c(-c2onc(C)c2C)cnn1C` (centres unmarked) [CBK282259] the “% of control remaining” value was 109.906%. `CC(C)NC(=O)c1cc(C2CN(Cc3ccc4ncccc4c3)CCO2)nc2ccccc12` (centres unmarked) [CBK285895] was tested, and the “% of control remaining” value was 106.322%. In the case of `CC(C)CC(NC(=O)Cc1cccc(O)c1)c1ncnn1C` (centres unmarked) [CBK307050], the “% of control remaining” value is reported as 99.6419%. In the case of `O=C(Nc1cccc(OCc2ccccc2)c1)c1cnc(-c2ccc(Cl)cc2)c(-c2ccco2)c1` [CBK037429], the “% of control remaining” value is reported as 196.636%. `O=C(Nc1ccncc1)c1cc2cc(F)ccc2[nH]1` [CBK107346] was tested, and the “% of control remaining” value was 100.246%. In the case of `CC1(NC(=O)Cn2c(C(F)(F)F)nc3ccccc32)CCC1` [CBK281606], the “% of control remaining” value is reported as 163.349%. `CC(=O)Nc1cccc(NC(=O)CSc2ccc(C(F)(F)F)cc2[N+](=O)[O-])c1` [CBK264758] was tested, and the “% of control remaining” value was 97.6487%. `O=c1[nH]nc2c(S(=O)(=O)N3CCCC3)cccn12` [CBK288460] was tested, and the “% of control remaining” value was 169.059%. `Cc1ccc(CSc2nnc(-c3ccc(NC(=O)/C=C/c4ccccc4)cc3)n2C)cc1` [CBK263850] was tested, and the “% of control remaining” value was 132.973%. With `CCN(C(=O)c1cn2c3c(cccc3c1=O)CC2)C1CCOC(C)(C)C1` (centres unmarked) [CBK307332] the “% of control remaining” value was 124.109%. In the case of `COc1ccccc1C(=O)Nc1ccccc1C(=O)Nc1ccc(C(=O)O)cc1` [CBK268625], the “% of control remaining” value is reported as 158.52%. In the case of `Cc1ccccc1N1CC(C(=O)Nc2cccnc2)CC1=O` (centres unmarked) [CBK288138], the “% of control remaining” value is reported as 136.752%. In the case of `COc1ccc(S(=O)(=O)N(CCc2ccccc2)CC(=O)O)cc1C` [CBK268505], the “% of control remaining” value is reported as 122.175%. With `Cn1cc(Nc2nc(-c3ccc(CCNS(C)(=O)=O)cc3)cs2)cn1` [CBK305065] the “% of control remaining” value was 112.233%. In the case of `CC(CC(=O)N1CCC(c2cc3cccnc3[nH]2)CC1)n1cccn1` (centres unmarked) [CBK285036], the “% of control remaining” value is reported as 125.377%. `CCCc1[nH]nc(O)c1Cc1ccc(Cl)cc1` [CBK075013] was tested, and the “% of control remaining” value was 103.572%. In the case of `CCOc1cc(CNc2nc[nH]n2)cc(Cl)c1OCc1ccccc1F` [CBK288088], the “% of control remaining” value is reported as 145.961%. In the case of `O=C(NC1CCCCCC1)c1ccc(COCC(F)(F)C(F)F)cc1` [CBK059012], the “% of control remaining” value is reported as 120.445%. In the case of `CN(C)C(=O)CN1CCC2(C/C=C/COc3ccccc3C(=O)NC[C@@H](Cc3ccccc3)NC2=O)CC1` [CBK292185], the “% of control remaining” value is reported as 105.597%. `COc1cccc(/C=N/NC(=O)C(=O)NCc2ccccn2)c1O` [CBK262097] was tested, and the “% of control remaining” value was 100%. In the case of `c1cncc(-c2cncc(NCC3CCOCC3)n2)c1` [CBK037195], the “% of control remaining” value is reported as 203.466%. `Cc1nc2ccccc2c(C)c1C(=O)OCc1nc(N)nc(N(C)C)n1` [CBK295627] was tested, and the “% of control remaining” value was 136.322%. In the case of `COc1cccc(C(=O)Nc2nc3ccccc3n2Cc2ccccc2)c1OC` [CBK299811], the “% of control remaining” value is reported as 98.2618%. In the case of `Cc1c(S(=O)(=O)N2CCN(C)CC2)sc2ccc(C(C)C)cc12` [CBK170362], the “% of control remaining” value is reported as 97.6065%. In the case of `COC(=O)C1(Cc2cc(-c3ccc(F)cc3)no2)CCOCC1` [CBK285329], the “% of control remaining” value is reported as 131.298%. `C=CCn1c(SCC(=O)O)nnc1-c1ccc([N+](=O)[O-])cc1` [CBK262736] was tested, and the “% of control remaining” value was 117.997%. `Cc1ccc(-c2nnc(CNC(=O)C3(c4ccccc4)CC3)o2)s1` [CBK284642] was tested, and the “% of control remaining” value was 114.065%. For `CCCCOc1ccc(-c2nnn(CC(=O)NCc3ccccc3)n2)cc1` [CBK068557], the “% of control remaining” value was 92.7471%. In the case of `CC(C)(O)CCN(Cc1ccc(-c2ccc(S(C)(=O)=O)cc2)nc1)C1CCN(C(=O)OC(C)(C)C)CC1` [CBK167517], the “% of control remaining” value is reported as 135.027%. With `CC(C)(C)c1oc(C(=O)O)cc1CN1CCCC1` [CBK287136] the “% of control remaining” value was 107.03%. For `N#Cc1nccnc1S(=O)(=O)CCO` [CBK023595], the “% of control remaining” value was 132.064%. `COc1cccc(CNCc2ccco2)c1OCc1ccccc1F` [CBK270271C] was tested, and the “% of control remaining” value was 111.518%. With `Cc1cc(-c2csc(CC(C)n3cc(Cl)cn3)n2)on1` (centres unmarked) [CBK304700] the “% of control remaining” value was 103.324%. With `CC1CC(Nc2ccccc2)c2ccccc2N1C(=O)CCCC(=O)O` (centres unmarked) [CBK286960] the “% of control remaining” value was 111.604%. `N#CCCN(C(=O)NC1CCc2ccccc21)C1CCCCC1` (centres unmarked) [CBK156383] was tested, and the “% of control remaining” value was 128.468%. In the case of `Cc1ccnn1CCC(=O)NC1(c2ccccc2F)CCCC1` [CBK283691], the “% of control remaining” value is reported as 140.25%. With `CN1CCCCCC1c1nc(-c2ccccc2)nn1CCCO` (centres unmarked) [CBK307653] the “% of control remaining” value was 126.363%. With `COc1nc(NCc2ccco2)nc(OC)n1` [CBK027479] the “% of control remaining” value was 100%. In the case of `O=C(c1c[nH]c(C(=O)N2CCN(c3ccccn3)CC2)c1)c1ccc(Cl)cc1Cl` [CBK107419], the “% of control remaining” value is reported as 99.4865%. With `COc1cccc(C(=O)NC(=S)Nc2ccc(C(=O)O)c(Cl)c2)c1` [CBK265065] the “% of control remaining” value was 118.589%. `CC(C)C(=O)Nc1cc2cccnc2nc1-c1ccc(N(C)C)cc1` [CBK073650] was tested, and the “% of control remaining” value was 100%.
